Source: article PMC6298966 (Scientific Reports, 2018)
Some peptides are written in HELM: one residue between dots, names in brackets for other building blocks, links after the first $.

Assay: general procedure: Fmoc solid-phase peptide synthesis; Fmoc-Rink-Amide p-MBHA resin; TBTU/DIEA
Conditions: whole synthesis, scale of the general procedure 200 µmol; for final HPLC purity: 220 nm; for isolated yield: total yield

Row | Substance | final HPLC purity [%] | isolated yield [%]
1 | Cf-HAIYPRH-NH2 | 99 | 
2 | PEPTIDE1{Y.T.I.W.M.P.E.N.P.R.P.G.T.P.C.D.I.F.T.N.S.R.G.K.R.A.S.N.G}$$$$V2.0 | 98 | 7.0
3 | Cf-YTIWMPENPRPGTPCDIFTNSRGKRASNG-OH | >99 | 9.3
4 | Cf-(VLRPPP)3-OH | 99 | 14.5
5 | PEPTIDE1{H.A.[NMeI].[NMeY].P.R.[NMeH].[am]}$$$$V2.0 | 97 | 
6 | H-VLRPPPVLRPPPVLRPPP-OH | 98 | 21.1
7 | PEPTIDE1{[dH].[dR].[dP].[dY].[dI].[dA].[dH].[am]}$$$$V2.0 | >99 | 
8 | PEPTIDE1{H.A.I.Y.P.R.H.[am]}$$$$V2.0 | 97 | 19.9
